# Experimental data taken from the supplement of paper PMC6411743.
# Sequences of proteins named here, by UniProt entry; tags and fusion partners are left off. A change or cut given only in a name is not applied to a line headed by its entry.
# UniProt Q5SRE5: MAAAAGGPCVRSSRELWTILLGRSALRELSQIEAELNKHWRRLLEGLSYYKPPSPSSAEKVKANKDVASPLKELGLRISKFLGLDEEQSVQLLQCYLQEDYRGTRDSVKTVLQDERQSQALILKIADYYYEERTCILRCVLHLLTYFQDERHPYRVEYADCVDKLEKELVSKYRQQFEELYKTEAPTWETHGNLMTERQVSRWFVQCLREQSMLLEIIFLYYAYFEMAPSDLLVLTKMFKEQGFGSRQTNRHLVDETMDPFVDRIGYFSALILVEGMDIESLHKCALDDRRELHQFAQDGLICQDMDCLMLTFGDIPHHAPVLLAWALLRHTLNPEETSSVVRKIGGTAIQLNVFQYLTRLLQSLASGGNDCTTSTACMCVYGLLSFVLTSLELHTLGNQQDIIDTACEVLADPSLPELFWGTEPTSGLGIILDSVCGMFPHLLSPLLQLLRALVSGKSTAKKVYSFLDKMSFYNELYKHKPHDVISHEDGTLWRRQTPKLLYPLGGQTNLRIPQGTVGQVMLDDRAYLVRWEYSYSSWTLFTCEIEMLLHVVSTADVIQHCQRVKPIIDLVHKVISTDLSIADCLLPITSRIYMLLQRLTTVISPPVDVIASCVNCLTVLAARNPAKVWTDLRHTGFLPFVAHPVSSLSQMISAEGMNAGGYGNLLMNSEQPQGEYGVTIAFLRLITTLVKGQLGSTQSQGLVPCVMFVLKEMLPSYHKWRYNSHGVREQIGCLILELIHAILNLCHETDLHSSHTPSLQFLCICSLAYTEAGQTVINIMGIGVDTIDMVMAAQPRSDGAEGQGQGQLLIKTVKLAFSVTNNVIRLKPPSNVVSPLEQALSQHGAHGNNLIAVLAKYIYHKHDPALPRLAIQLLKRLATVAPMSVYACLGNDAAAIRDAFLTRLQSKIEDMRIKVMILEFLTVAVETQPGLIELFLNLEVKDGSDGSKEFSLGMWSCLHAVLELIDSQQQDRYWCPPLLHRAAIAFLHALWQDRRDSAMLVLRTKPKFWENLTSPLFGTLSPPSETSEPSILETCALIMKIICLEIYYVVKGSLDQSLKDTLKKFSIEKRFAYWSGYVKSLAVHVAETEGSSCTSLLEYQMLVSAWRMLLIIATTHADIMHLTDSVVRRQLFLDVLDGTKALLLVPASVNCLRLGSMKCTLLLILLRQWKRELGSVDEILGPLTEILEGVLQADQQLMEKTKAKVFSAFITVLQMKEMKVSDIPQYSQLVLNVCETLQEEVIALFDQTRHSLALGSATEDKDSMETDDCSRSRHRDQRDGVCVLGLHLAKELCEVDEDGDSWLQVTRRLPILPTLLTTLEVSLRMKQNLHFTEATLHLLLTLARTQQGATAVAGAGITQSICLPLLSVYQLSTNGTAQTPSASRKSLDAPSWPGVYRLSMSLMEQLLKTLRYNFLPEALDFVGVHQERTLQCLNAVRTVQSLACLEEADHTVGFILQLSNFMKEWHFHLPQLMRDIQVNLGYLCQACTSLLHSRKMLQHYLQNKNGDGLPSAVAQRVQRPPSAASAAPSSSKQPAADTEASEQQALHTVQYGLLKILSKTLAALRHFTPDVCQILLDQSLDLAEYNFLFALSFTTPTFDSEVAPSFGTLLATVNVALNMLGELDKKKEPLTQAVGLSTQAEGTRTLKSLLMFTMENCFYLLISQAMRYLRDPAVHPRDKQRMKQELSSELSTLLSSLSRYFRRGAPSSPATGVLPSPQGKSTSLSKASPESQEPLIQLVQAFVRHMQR
# UniProt Q6N069: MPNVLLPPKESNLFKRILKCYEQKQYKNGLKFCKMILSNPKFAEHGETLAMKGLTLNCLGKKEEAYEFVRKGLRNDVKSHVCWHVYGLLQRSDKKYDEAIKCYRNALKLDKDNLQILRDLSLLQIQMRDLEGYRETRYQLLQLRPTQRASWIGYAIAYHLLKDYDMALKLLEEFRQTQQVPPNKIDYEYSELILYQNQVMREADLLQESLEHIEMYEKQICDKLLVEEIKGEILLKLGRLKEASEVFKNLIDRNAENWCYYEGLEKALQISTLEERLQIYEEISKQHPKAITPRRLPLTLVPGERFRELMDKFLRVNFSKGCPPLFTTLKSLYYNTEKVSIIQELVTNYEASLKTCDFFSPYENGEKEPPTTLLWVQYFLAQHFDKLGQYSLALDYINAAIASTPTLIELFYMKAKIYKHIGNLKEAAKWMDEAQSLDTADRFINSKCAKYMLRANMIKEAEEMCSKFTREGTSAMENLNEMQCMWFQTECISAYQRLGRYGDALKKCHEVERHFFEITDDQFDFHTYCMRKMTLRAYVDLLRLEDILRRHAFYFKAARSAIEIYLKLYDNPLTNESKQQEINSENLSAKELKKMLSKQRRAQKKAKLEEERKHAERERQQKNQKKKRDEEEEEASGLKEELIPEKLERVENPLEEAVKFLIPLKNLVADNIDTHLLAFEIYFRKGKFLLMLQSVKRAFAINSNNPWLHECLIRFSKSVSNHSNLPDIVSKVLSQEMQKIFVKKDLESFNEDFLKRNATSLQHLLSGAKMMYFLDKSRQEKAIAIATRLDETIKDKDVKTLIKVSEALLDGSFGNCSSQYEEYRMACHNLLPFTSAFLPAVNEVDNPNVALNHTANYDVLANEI
# UniProt Q6IQ49: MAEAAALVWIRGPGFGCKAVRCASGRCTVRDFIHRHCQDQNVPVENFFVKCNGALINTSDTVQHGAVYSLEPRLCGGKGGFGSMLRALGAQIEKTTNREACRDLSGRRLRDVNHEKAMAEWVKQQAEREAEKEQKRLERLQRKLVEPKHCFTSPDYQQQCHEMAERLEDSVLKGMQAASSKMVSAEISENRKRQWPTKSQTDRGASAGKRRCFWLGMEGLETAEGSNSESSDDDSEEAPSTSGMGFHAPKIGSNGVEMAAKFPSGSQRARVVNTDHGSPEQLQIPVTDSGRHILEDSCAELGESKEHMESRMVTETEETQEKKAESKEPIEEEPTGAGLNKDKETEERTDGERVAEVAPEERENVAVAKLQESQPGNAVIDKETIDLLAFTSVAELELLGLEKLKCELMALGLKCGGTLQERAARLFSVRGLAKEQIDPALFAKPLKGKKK
# UniProt Q5VVJ2: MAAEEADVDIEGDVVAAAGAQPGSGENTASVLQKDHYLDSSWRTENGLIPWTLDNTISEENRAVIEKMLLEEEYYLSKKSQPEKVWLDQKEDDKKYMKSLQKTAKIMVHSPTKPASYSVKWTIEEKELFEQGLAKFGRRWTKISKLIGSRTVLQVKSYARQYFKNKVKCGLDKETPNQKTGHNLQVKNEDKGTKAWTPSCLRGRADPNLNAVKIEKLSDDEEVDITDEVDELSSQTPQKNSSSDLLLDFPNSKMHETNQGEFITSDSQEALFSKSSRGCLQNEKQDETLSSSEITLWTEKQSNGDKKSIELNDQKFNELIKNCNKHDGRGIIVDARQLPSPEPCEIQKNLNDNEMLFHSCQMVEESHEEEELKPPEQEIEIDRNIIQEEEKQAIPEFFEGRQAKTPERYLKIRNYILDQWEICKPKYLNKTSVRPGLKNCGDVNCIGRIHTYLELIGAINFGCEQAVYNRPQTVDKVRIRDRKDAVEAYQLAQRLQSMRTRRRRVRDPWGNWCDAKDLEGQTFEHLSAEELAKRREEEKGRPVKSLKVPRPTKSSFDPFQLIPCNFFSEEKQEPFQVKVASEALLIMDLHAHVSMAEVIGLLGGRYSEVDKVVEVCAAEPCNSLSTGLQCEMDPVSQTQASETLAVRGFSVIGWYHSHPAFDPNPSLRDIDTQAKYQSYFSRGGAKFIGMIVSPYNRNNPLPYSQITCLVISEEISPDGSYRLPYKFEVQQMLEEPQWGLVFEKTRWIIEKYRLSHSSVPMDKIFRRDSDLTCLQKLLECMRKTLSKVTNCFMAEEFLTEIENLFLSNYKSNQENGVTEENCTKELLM
# UniProt Q53HC5: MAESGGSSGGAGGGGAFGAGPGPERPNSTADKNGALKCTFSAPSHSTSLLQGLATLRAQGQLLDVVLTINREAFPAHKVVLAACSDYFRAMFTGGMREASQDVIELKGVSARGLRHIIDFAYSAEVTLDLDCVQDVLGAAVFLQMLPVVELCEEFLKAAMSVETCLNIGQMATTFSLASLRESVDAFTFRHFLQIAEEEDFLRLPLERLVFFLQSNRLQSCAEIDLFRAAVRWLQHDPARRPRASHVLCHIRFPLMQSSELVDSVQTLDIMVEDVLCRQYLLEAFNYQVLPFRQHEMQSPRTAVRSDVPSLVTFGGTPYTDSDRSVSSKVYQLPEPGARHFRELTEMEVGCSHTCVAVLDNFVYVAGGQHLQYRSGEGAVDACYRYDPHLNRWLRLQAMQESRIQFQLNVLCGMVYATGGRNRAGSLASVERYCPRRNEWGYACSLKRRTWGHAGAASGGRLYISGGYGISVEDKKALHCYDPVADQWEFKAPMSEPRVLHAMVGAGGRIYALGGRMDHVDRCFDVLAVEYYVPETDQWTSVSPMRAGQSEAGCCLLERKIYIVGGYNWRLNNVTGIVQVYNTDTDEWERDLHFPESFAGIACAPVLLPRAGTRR
# UniProt Q6P1N0: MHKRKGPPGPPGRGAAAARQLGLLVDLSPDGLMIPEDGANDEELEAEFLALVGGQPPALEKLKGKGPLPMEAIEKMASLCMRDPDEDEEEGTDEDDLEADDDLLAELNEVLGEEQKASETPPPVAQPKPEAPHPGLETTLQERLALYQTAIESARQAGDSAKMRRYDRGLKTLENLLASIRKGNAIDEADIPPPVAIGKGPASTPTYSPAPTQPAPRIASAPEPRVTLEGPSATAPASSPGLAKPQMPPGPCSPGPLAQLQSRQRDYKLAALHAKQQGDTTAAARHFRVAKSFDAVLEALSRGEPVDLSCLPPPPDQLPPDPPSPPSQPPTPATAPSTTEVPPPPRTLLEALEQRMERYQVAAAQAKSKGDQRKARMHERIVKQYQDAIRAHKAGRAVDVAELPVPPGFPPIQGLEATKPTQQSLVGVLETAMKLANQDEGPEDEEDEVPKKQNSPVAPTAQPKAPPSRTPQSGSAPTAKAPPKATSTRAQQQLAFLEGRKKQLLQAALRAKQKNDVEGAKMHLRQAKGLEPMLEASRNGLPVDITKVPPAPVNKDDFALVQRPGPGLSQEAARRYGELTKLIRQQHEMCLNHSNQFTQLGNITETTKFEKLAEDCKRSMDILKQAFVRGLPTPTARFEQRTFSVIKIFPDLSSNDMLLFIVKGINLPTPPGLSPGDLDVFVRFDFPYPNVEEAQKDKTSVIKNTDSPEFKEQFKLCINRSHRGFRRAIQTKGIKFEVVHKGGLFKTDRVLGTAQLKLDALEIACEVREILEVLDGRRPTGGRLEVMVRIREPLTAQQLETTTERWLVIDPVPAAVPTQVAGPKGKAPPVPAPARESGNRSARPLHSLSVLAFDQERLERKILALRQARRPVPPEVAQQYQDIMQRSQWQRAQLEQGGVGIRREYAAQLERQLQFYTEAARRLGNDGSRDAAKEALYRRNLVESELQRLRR
# UniProt Q68E01, whole entry: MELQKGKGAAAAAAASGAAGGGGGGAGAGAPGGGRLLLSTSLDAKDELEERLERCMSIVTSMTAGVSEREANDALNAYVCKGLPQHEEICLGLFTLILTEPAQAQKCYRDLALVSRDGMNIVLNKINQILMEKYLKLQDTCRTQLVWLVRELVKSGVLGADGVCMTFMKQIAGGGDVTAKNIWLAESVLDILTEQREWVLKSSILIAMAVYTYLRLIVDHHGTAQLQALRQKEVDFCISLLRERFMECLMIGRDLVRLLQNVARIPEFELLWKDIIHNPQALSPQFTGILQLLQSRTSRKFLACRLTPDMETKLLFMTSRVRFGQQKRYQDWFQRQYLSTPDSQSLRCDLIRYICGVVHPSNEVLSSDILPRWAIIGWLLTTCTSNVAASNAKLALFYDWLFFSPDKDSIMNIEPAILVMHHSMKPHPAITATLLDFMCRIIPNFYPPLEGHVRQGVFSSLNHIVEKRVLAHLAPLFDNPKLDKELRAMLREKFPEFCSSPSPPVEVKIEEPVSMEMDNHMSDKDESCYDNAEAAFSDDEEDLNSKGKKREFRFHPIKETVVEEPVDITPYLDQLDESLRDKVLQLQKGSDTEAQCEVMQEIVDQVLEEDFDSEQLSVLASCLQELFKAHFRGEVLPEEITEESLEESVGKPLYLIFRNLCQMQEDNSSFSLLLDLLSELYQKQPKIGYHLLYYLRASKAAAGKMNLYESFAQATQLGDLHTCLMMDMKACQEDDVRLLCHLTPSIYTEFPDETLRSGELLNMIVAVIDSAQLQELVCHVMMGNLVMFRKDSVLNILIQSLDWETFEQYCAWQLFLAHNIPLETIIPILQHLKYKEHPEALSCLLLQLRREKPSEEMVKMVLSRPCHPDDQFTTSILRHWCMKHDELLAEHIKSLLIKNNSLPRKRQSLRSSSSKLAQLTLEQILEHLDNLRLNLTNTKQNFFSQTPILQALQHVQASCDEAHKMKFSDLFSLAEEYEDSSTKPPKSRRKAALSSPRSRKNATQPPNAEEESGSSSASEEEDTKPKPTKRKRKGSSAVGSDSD
# ± gives the standard deviation of the averaged measurements. Only a part is listed here, and it is no random draw. Small differences around the control level are noise.
# Compound: Nc1ncnc2c1ncn2[C@@H]1O[C@H](COP(=O)(O)OP(=O)(O)OP(=O)(O)O)[C@@H](O)[C@H]1O [adenosine triphosphate]
# Assay: NP40-soluble protein abundance relative to vehicle (solubility fold change) (ratio); higher = more soluble protein in presence of ATP
# Summary of the method: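 Each value is a fold change relative to the detergent-processed vehicle, calculated per replicate from vsn-normalised intensities. Jurkat crude lysate received eight concentrations (0.1 to 10 mM) for 10 min at room temperature and 3 min at 37 °C, then was solubilised in 0.8% NP40 with benzonase (60 min, 4 °C). The ultracentrifuged supernatant was TMT-labelled and run by LC-MS/MS in three independent experiments.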
Target,NP40-soluble protein abundance (concentration: 0.1mM),NP40-soluble protein abundance (concentration: 0.5mM)
NUP188 (UniProt Q5SRE5),1.05 ± 0.024,1.06 ± 0.045
UniProt Q6N069,1.07 ± 0.09,1.05 ± 0.052
UniProt Q6PCB8 and related entries,0.913 ± 0.057,0.922 ± 0.079
AMOT (UniProt Q4VCS5),0.976 ± 0.067,0.926 ± 0.096
SFT2D3 (UniProt Q587I9),0.935 ± 0.097,0.893 ± 0.11
Q5TCJ5 and related entries (UniProt Q9H3S1),1.04 ± 0.048,1.05 ± 0.033
UniProt Q6IQ49 and related entries,0.932 ± 0.022,0.929 ± 0.014
MYSM1 (UniProt Q5VVJ2),1.01 ± 0.024,0.987 ± 0.053
KLHL26 (UniProt Q53HC5),1.08 ± 0.098,1.15 ± 0.1
ZMYM1 (UniProt Q5SVZ6),1.02 ± 0.012,0.988 ± 0.033
UniProt Q5F1R6 and related entries,1.02 ± 0.055,1.01 ± 0.033
UniProt Q53F19,0.993 ± 0.016,1.01 ± 0.05
UniProt Q5VZL5 and related entries,1.03 ± 0.016,1.12 ± 0.053
UniProt Q6ICG6 and related entries,1.03 ± 0.07,1.12 ± 0.054
MRPL2 (UniProt Q5T653),1.04 ± 0.14,0.973 ± 0.11
UniProt Q6P1N0 and related entries,1.01 ± 0.026,1.01 ± 0.037
RETSAT (UniProt Q6NUM9),0.93 ± 0.092,0.906 ± 0.094
UniProt Q68E01-2|Q68E01,1.1 ± 0.16,1.04 ± 0.1
CCDC58 (UniProt Q4VC31),0.949 ± 0.079,0.936 ± 0.1
Q5JSC0 and related entries (UniProt Q5VZF2),1.04 ± 0.04,1.05 ± 0.016
ALKBH2 (UniProt Q6NS38),1 ± 0.065,1.03 ± 0.053

# A few values from the list.
# Under NP40-soluble protein abundance (concentration: 0.5mM), AMOT (UniProt Q4VCS5) has the entry 0.926 ± 0.096
# Under NP40-soluble protein abundance (concentration: 0.5mM), UniProt Q68E01-2|Q68E01 has the entry 1.04 ± 0.1
